No constants are given. Whether binding was seen depends on the method and setting. Binding can be weak; no strength is given.

Protein sequences, listed by entry. Tags and fused reporters are not part of them. Lines headed by an entry give the natural chain unless they say otherwise; changes in a name come on top.
UniProt Q15116: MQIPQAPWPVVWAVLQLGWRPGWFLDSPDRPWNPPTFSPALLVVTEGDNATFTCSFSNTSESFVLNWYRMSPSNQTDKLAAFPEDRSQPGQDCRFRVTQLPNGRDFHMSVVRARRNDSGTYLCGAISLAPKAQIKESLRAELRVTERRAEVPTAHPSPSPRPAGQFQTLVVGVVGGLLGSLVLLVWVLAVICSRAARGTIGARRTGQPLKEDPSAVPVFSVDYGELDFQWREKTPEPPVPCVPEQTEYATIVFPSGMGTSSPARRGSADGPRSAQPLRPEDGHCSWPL

Assay [1] has as its target human PD1 ECD (human) (UniProt Q15116). Description: SPR, summary sentence of Example 3. For orientation: Surface plasmon resonance follows binding to a sensor surface in real time, without labels.
Assay [2] shares this target. Kind of assay: SPR (ProteOn XPR36), antibody captured on Protein A/G, PD1 ECD as analyte.
The target is the same in assay [3]. Description: hybridoma screening.

B1: PD1-1 (antibody, human IgG4 S228P, kappa, V domains shown)
VH: EVMLVESGGGLVQPGGSLRLSCTASGFTFSASAMSWVRQAPGKGLEWVAYISGGGGDTYYSSSVKGRFTISRDNAKNSLYLQMNSLRAEDTAVYYCARHSNVNYYAMDYWGQGTLVTVSS
VL: EIVLTQSPATLSLSPGERATMSCRASENIDTSGISFMNWYQQKPGQAPKLLIYVASNQGSGIPARFSGSGSGTDFTLTISRLEPEDFAVYYCQQSKEVPWTFGQGTKLEIKR
On to B1, for which the binding result with human PD1 ECD (human) [1] and with human PD1 ECD (human) [2] was “binds” each time.

B2: PD1-3 (antibody, human IgG4 S228P, kappa, V domains shown)
VH: EVMLVESGGGLVQPGGSLRLSCTASGFTFSKSAMSWVRQAPGKGLEWVAYISGGGGDTYYSSSVKGRFTISRDNAKNSLYLQMNSLRAEDTAVYYCARHSNVNYYAMDYWGQGTLVTVSS
VL: EIVLTQSPATLSLSPGERATMSCRASENIDVSGISFMNWYQQKPGQAPKLLIYVASNQGSGIPARFSGSGSGTDFTLTISRLEPEDFAVYYCQQSKEVPWTFGQGTKLEIKR
On to B2, for which the binding entry in the assay with human PD1 ECD (human) [1] and with human PD1 ECD (human) [2] was “binds” each time.

B3: PD1-2 (antibody, human IgG4 S228P, kappa, V domains shown)
VH: EVMLVESGGGLVQPGGSLRLSCTASGFTFSASAMSWVRQAPGKGLEWVAYISGGGGDTYYSSSVKGRFTISRDNAKNSLYLQMNSLRAEDTAVYYCARHSNPNYYAMDYWGQGTLVTVSS
VL: EIVLTQSPATLSLSPGERATMSCRASENIDTSGISFMNWYQQKPGQAPKLLIYVASNQGSGIPARFSGSGSGTDFTLTISRLEPEDFAVYYCQQSKEVPWTFGQGTKLEIKR
Regarding B3, the binding result with human PD1 ECD (human) [1] and with human PD1 ECD (human) [2] was “binds” each time.

B4: 77E11 (antibody, V domains shown)
VH: EVMLVESGGGLVKPGGSLKLSCTASGFTFSNSAMSWVRQTPERRLEWVAYISGGGGDTYYSDSVKGRFTISRDNAKDTLYLHMSSLRSEDTALHYCARHSNSNYYAMDYWGQGTSVTVSS
VL: DIVLTQSPASLAVSLGQRATMSCRASENIDNSGISFMNWFQQKPGQPPKLLIYVASNQGSGVPARFSGSGSGTDFRLTIHPLEEDDTAMYFCQQSKEVPWTFGGGTKLEIK
Take B4: the binding entry with human PD1 ECD (human) [3] is “binds”.

Values taken from patent publication US20170334995A1.
